Results reported in publication PMC4407832.

Biological target: T1, GFP-NS (green fluorescent protein tagged human nucleostemin) (human) (UniProt Q9BVP2)
T1 sequence: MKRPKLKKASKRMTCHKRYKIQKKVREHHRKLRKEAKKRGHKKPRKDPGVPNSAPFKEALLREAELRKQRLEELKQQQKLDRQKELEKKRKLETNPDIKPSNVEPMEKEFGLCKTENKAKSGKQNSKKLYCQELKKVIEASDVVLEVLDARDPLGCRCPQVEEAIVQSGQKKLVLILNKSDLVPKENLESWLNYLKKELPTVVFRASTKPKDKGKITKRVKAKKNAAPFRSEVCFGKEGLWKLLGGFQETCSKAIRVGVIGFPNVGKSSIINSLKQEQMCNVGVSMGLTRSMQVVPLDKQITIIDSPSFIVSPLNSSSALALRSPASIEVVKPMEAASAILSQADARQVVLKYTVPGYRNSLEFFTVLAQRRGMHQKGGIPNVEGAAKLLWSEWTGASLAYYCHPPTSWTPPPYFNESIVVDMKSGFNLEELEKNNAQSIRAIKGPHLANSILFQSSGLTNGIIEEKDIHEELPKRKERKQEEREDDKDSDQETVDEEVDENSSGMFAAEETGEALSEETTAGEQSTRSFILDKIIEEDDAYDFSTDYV
Assay: co-IP; anti-GFP antibody, overnight at 4°C, protein A Plus agarose; lysates of MDA-MB-231 cells transfected with GFP or GFP-NS; immunoblot for GFP, mTOR, FAK and Akt

In the case of “Akt kinase (also known as protein kinase B) (human (endogenous in MDA-MB-231)) (enzyme)”, the binding is reported as “binds”.

No constants are given. Whether binding was seen depends on the method and setting. In cells and extracts the contact can be indirect. Binding can be weak; no strength is given. Sequences can lack the tags named with a protein.
